No constants are given. Whether binding was seen depends on the method and setting.
Key:
Experiment in all cases: SEC; S200 16/60 gel filtration column in 20 mM Hepes pH 7.4, 500 mM NaCl, 0.5 mM TCEP, after Ni2+ IMAC; retention volumes compared with molecular weight standards; both purified
[1] = target: Oxidative-stress responsive 1 (residues 1-309) (human) (UniProt O95747)
[2] = target: Mitogen-activated protein kinase kinase 2 (residues 46-400) (human) (UniProt P36507)
[3] = target: Mitogen-activated protein kinase 8 isoform alpha1 (residues 1-363) (human) (UniProt P45983)

The chains behind the UniProt entries cited, without tags or fusion partners. Where a name states a change or a piece, a line headed by the entry shows the natural chain unless it says otherwise. Residues count along the entry.
UniProt O95747, residues 1-309: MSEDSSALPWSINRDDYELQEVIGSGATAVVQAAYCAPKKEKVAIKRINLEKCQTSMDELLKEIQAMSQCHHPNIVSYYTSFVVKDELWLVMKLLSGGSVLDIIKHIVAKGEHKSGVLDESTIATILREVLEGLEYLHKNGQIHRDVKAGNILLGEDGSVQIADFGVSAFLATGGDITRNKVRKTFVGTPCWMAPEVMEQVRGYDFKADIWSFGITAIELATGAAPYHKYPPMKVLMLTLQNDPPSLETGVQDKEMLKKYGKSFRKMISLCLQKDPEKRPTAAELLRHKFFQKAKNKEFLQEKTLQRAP
UniProt P45983, residues 1-363: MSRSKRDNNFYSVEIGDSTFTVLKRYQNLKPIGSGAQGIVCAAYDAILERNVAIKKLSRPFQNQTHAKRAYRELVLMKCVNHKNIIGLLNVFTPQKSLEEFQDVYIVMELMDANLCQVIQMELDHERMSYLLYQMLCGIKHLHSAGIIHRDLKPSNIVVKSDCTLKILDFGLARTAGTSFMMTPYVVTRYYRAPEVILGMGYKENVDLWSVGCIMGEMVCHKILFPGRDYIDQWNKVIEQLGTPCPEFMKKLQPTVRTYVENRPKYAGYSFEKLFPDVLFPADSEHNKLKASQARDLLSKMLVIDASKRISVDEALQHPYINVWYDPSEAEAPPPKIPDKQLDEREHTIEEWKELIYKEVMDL

## Oxidative-stress responsive 1 (residues 1-309) (from UniProt O95747 1-309) (domain or fragment)
[1]
  binding: no binding

## Mitogen-activated protein kinase kinase 2 (residues 46-400) (from UniProt P36507 46-400) (domain or fragment)
[2]
  binding: no binding

## Mitogen-activated protein kinase 8 isoform alpha1 (residues 1-363) (from UniProt P45983-2 1-363) (domain or fragment)
[3]
  binding: no binding
